Results are given in words; binding and its absence hold for the method and conditions named. Some binding calls cover weakened binding; strength is not graded here. Sequences can lack the tags named with a protein.
Target: T1, Recombinant human desmoglein 2 extracellular domain tagged with Fc fragment (DSG2-Fc) (human), Q14126
T1 chain: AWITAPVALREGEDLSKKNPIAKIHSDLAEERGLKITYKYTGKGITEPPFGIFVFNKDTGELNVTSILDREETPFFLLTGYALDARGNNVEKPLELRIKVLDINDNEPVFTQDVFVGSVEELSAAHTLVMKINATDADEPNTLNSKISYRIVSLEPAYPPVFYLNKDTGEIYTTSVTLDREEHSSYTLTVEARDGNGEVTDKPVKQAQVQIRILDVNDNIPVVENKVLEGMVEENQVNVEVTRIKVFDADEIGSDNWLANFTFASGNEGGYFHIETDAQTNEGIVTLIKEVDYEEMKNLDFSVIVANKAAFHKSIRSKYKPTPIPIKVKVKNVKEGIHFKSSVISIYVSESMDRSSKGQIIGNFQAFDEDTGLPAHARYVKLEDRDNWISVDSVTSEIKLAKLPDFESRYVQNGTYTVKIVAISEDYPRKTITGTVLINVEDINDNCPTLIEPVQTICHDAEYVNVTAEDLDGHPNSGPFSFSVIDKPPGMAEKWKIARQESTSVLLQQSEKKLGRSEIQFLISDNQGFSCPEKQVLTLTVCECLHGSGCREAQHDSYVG
Assay: atomic force microscopy (cell-free force spectroscopy); the same Fc construct covalently linked via a PEG linker to the AFM tip and to the mica sheet; 37 °C; HBSS buffer; loading force 0.3 nN, contact delay 0.1 s, retraction velocity 1 µm/s; 1000 force-distance curves for the baseline trans-interaction probability, then 1 h with patient or control IgG (1:50); both purified
Settings: remark: other sources report otherwise

- binding: binds
B1: Recombinant human desmoglein 2 extracellular domain tagged with Fc fragment (DSG2-Fc), Q14126 50-609 (Fc fusion)
chain: AWITAPVALREGEDLSKKNPIAKIHSDLAEERGLKITYKYTGKGITEPPFGIFVFNKDTGELNVTSILDREETPFFLLTGYALDARGNNVEKPLELRIKVLDINDNEPVFTQDVFVGSVEELSAAHTLVMKINATDADEPNTLNSKISYRIVSLEPAYPPVFYLNKDTGEIYTTSVTLDREEHSSYTLTVEARDGNGEVTDKPVKQAQVQIRILDVNDNIPVVENKVLEGMVEENQVNVEVTRIKVFDADEIGSDNWLANFTFASGNEGGYFHIETDAQTNEGIVTLIKEVDYEEMKNLDFSVIVANKAAFHKSIRSKYKPTPIPIKVKVKNVKEGIHFKSSVISIYVSESMDRSSKGQIIGNFQAFDEDTGLPAHARYVKLEDRDNWISVDSVTSEIKLAKLPDFESRYVQNGTYTVKIVAISEDYPRKTITGTVLINVEDINDNCPTLIEPVQTICHDAEYVNVTAEDLDGHPNSGPFSFSVIDKPPGMAEKWKIARQESTSVLLQQSEKKLGRSEIQFLISDNQGFSCPEKQVLTLTVCECLHGSGCREAQHDSYVG

Reference: article PMC10348947, “Catalytic antibodies in arrhythmogenic cardiomyopathy patients cleave desmoglein 2 and N-cadherin and impair cardiomyocyte cohesion” (Cellular and Molecular Life Sciences: CMLS, 2023)
